Source: PubChem BioAssay AID504444 (National Center for Advancing Translational Sciences (NCATS), 2011)
About 7,500 (2.1%) of roughly 360,000 compounds were called active. This list was built around the results that the source calls inconclusive (neither active nor inactive); the mix of calls is not that of the screen. Calls follow the shape of the dose curve; as a rule, active = well fitted inhibition curve with a large enough effect; inconclusive = small, poorly fitted or top-dose-only effect, or effect the other way; inactive = flat fitted curve, though single readings scatter. Potencies beside an inconclusive call are fits to weak or partial responses and may not hold up.

Experiment: Nrf2 qHTS screen for inhibitors; also: nearly all actives have a fitted effect of over 60% in size
Details: A549 ARE-Fluc reporter, luciferase luminescence, 18-24 h; activity change, negative = inhibition: at 46 µM (top of the series)
Method in brief: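 Two sequential reads on A549 ARE_Fluc cells exposed to compound for 18-24 h: a CellTiter-Fluor fluorescence read for viability, then a luciferase luminescence read for Nrf2/ARE activity.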
% is scaled to controls: 0 for no effect and ±100 for the full control effect; potency is read from the fitted curve at half-maximal effect.

Row | SMILES | Potency | activity change, negative = inhibition
1 | Cc1csc(CNc2ncnc3ccc(-c4ccoc4)cc23)c1 | inconclusive: 29.1 µM [falling, single point] | 
2 | COc1ccc(-c2nnc(SCC(=O)/C(C#N)=C(\C)N)o2)cc1 | inconclusive: 0.517 µM [activator, full curve, poor fit] | 
3 | O=S(=O)(c1ccccc1)N1N=C(c2ccc(O)cc2)CC1c1ccco1 (stereo not drawn) | inconclusive: 16.4 µM [falling, single point] | 
4 | COc1ccc(N2CCN(C(=O)c3ccc4c(c3)N(Cc3cc(C)ccc3C)C(=O)c3ccccc3S4=O)CC2)cc1 (stereo not drawn) | inconclusive: 16.4 µM [falling, partial curve, poor fit] | 
5 | CC(=O)c1c(C)oc2ccc(NS(=O)(=O)c3ccc(C(C)C)cc3)cc12 | active: 13 µM | 
6 | Cc1cccn2c(=O)c(/C=C(\C#N)C(N)=O)c(N3CCN(c4ccccc4)CC3)nc12 | inconclusive: 9.2 µM [falling, partial curve] | 
7 | O=C(c1ccc(N2CCCC2)c([N+](=O)[O-])c1)N1CCN(S(=O)(=O)c2ccc(Cl)cc2)CC1 | inconclusive: 23.1 µM [falling, single point] | 
8 | COc1ccc(C(=O)Nc2cccc([N+](=O)[O-])c2)cc1Br | inconclusive: 32.6 µM [falling, single point] | 
9 | CCS(=O)(=O)c1nc(S(=O)(=O)c2ccc(C)cc2)c(NCc2ccc(Cl)cc2)s1 |  | inactive: -1.83%
10 | Cc1cc(N2O[C@H]3C=C[C@@H]2C3)no1 |  | inactive: 3.66%
11 | Cc1csc(SCC(=O)Nc2nccs2)n1 |  | inactive: 1.48%
12 | CCN(CC)C(=O)c1sc(NC(=O)c2ccc3c(c2)OCO3)c(C(N)=O)c1C | inconclusive: 9.2 µM [activator, partial curve] | 
13 | CC(=O)Oc1ccc(C(c2ccc(OC(C)=O)cc2)c2ccccn2)cc1 | inconclusive: 0.058 µM [falling, full curve, poor fit] | 
14 | O=C(Nc1ccc2c(c1)CCC2)c1cnc(Cl)c(Cl)c1 | inconclusive: 13 µM [activator, partial curve] | 
15 | COc1ccc(NC(=O)CSc2ccc(-c3cccs3)nn2)cc1 | inconclusive: 18.4 µM [activator, single point] | 
16 | COc1ccc(/C=C/C(=O)N2CCC(c3nc4ccccc4o3)CC2)cc1 | inconclusive: 32.6 µM [falling, partial curve, poor fit] | 
17 | N#Cc1nc(COc2ccccc2Cl)oc1NCc1cccnc1 |  | inactive: 5.81%
18 | CC(Sc1nnc(Nc2ccccc2)s1)C(=O)NC1CCCc2ccccc21 (stereo not drawn) | inconclusive: 29.1 µM [falling, single point] | 
19 | O=C(CSc1nnc(-c2ccncc2)o1)Nc1cc(F)ccc1F |  | inactive: 12.4%
20 | COC(=O)c1ccc2nc(NC(=O)CCS(=O)(=O)c3ccccc3)sc2c1 |  | inactive: 12.3%
21 | COc1ccc2c(c1)CC/C(=C/c1ccco1)C2=O | inconclusive: 4.11 µM [activator, full curve] | 
22 | Nc1c(C(=O)NCc2ccc3c(c2)OCO3)nnn1CC(=O)Nc1ccc(Br)cc1 | inconclusive: 29.1 µM [falling, single point] | 

A section of the results above, as a working copy:
Row | SMILES | Potency | activity change, negative = inhibition
5 | CC(=O)c1c(C)oc2ccc(NS(=O)(=O)c3ccc(C(C)C)cc3)cc12 | active: 13 µM | 
6 | Cc1cccn2c(=O)c(/C=C(\C#N)C(N)=O)c(N3CCN(c4ccccc4)CC3)nc12 | inconclusive: 9.2 µM [falling, partial curve] | 

(list continues)

Row | SMILES | Potency | activity change, negative = inhibition
23 | COc1ccc(S(=O)(=O)NC2CCCCC2)cc1-n1cnnn1 |  | inactive: 0.201%
24 | O=C(/C=C\c1ccccc1OC(=O)c1ccccc1F)c1cc2ccccc2o1 | inconclusive: 25.9 µM [activator, single point] | 
25 | Cc1cc(-c2ccccc2)nc(SCC(=O)c2cccc([N+](=O)[O-])c2)n1 | inconclusive: 18.4 µM [falling, single point] | 
26 | CC1(C)CC(=O)c2cnc(N3CCc4ccccc43)nc2C1 | inconclusive: 1.46 µM [activator, full curve] | 
27 | COc1ccc(C)cc1NS(=O)(=O)c1ccc(NC(=O)CN(c2cc([N+](=O)[O-])ccc2C)S(C)(=O)=O)cc1 | inconclusive: 5.8 µM [falling, partial curve] | 
28 | COC(=O)COc1cc(Br)c(/C=C2/SC(=O)N(CC(=O)N3CCCC3)C2=O)cc1OC | inconclusive: 11.6 µM [activator, partial curve, poor fit] | 
29 | Fc1ccc(OCCCCN2CCOCC2)cc1 | inconclusive: 6.51 µM [activator, single point] | 
30 | O=C(CN1CCN(c2ccc(O)cc2)CC1)Nc1cc(S(=O)(=O)N2CCCC2)ccc1Cl | inconclusive: 5.8 µM [falling, partial curve, poor fit] | 
31 | COc1cccc(-c2noc(CCCC(=O)Nc3ccc(C(N)=O)cc3)n2)c1 | inconclusive: 2.59 µM [falling, full curve] | 
32 | COc1cccc(NC(=O)c2nc(S(C)(=O)=O)ncc2Cl)c1 |  | inactive: -20.1%
33 | O=C(CCS(=O)(=O)c1ccc(Cl)cc1)N1CCCc2ccccc21 |  | inactive: -20.9%
34 | CC(=O)N1CCCc2cc(S(=O)(=O)N3CCCC(C(=O)NCc4ccccc4)C3)ccc21 (stereo not drawn) | inconclusive: 29.1 µM [falling, single point] | 
35 | Cn1c(COc2ccc(Cl)cc2)nnc1SCc1ncc(-c2ccccc2)o1 | active: 16.4 µM | 
36 | COc1ccc(N(CC(=O)NCCSc2ccccn2)S(=O)(=O)c2ccccc2)cc1Cl | inconclusive: 23.1 µM [falling, single point] | 
37 | COc1ccc2nc(NC(=O)C(NS(=O)(=O)c3cccs3)C(C)C)sc2c1 (stereo not drawn) | inconclusive: 2.59 µM [activator, single point] | 
38 | O=C(NNC(=O)C1[C@H]2CCCC[C@@H]12)Nc1cccc2ccccc12 (stereo partly drawn) | inconclusive: 9.2 µM [falling, partial curve] | 
39 | CCOc1ccc(NC(=O)Cn2cc(C(=O)c3ccc(OCC)cc3)c(=O)c3cc4c(cc32)OCCO4)cc1 |  | inactive: 9.97%
40 | COc1ccc(NC(=O)Oc2cc(C)ccc2C(C)C)cc1 |  | inactive: -19%
41 | COc1cc(C2=NOC(C(=O)N3CCN(c4ccc(F)cc4)CC3)C2)cc(OC)c1OC (stereo not drawn) | inconclusive: 32.6 µM [falling, single point] | 
42 | O=C(C1CCCN(S(=O)(=O)c2cccc3nsnc23)C1)N1CCc2ccccc2C1 (stereo not drawn) | active: 14.6 µM | 
43 | CN(C)S(=O)(=O)N1CCC(n2cnc3cccnc32)CC1 | inconclusive: 29.1 µM [falling, single point] | 
